We go through one substance from doi:10.1101/2023.10.13.562240.

Protein sequences, listed by entry. Tags and fused reporters are not part of them.
UniProt Q9C0C7: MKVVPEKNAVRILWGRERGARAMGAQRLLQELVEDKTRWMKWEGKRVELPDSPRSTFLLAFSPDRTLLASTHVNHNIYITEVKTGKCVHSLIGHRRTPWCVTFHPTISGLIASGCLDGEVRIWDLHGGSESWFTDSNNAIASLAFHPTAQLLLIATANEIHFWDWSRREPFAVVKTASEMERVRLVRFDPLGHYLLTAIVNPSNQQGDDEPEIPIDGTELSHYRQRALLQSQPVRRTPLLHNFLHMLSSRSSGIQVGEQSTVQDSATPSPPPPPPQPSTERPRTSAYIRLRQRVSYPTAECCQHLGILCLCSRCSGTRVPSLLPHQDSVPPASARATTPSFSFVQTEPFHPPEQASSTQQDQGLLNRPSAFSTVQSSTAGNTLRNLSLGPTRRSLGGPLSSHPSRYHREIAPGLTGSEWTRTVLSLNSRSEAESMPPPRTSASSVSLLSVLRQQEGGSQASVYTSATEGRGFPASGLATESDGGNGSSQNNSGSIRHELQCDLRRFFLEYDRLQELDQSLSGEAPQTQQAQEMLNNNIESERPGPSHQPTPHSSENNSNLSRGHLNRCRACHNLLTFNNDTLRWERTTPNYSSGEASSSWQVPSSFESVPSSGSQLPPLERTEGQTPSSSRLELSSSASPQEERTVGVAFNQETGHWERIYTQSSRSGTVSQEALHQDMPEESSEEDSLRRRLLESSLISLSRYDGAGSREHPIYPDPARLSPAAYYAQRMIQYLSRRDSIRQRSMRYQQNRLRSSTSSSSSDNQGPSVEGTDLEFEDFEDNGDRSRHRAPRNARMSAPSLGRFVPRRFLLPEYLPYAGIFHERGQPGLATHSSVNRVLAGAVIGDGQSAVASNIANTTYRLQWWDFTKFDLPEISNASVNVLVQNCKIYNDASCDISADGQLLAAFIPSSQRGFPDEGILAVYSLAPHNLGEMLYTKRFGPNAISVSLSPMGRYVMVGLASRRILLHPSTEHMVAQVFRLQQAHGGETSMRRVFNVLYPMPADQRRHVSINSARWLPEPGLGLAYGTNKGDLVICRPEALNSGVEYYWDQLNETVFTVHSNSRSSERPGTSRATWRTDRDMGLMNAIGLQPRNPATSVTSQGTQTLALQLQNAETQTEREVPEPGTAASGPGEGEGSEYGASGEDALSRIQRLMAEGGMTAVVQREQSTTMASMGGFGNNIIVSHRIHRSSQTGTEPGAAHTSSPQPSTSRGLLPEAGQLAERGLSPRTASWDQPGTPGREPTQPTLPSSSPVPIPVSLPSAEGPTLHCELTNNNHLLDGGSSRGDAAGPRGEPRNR
UniProt P63167: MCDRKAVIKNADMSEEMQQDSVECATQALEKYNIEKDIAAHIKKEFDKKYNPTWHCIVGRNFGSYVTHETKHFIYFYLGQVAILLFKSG

These are yes or no findings as the source states them, for the method shown. In cells and extracts the contact can be indirect. Some binding calls cover weakened binding; strength is not graded here.

The assay has as its target Activating molecule in Beclin1-regulated autophagy (AMBRA1), wild type (UniProt Q9C0C7). The assay is described as follows: co-IP.

As for “dynein light chain (DLC)1 (from UniProt P63167 1-89)”, the binding result was “binds”.
